Measured data: PubChem BioAssay AID493246 (Drosophila RNAi Screening Center, 2011)
The screen tested about 21,000 reagents; this is a random part of those that have a named target and a result. Of all reagents, 429 (2%) got an active call. 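Values are raw and not normalised between plates; calls rest on per-plate z-scores that were not deposited.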 Not stated in the record: the amount of reagent, the time to read-out.

- Purpose: 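Genome-wide search for dsRNAs that reduce cell number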 (primary screen)
- Cell system: Drosophila Kc and S2R+ cells
- Knock-down reagent: long dsRNA against Drosophila genes
- Read-out: 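Raw, unnormalised count of remaining cells in each well; per-plate z-scores of cell number underlie the calls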
- Reading the numbers: Kc cell number and S2R+ cell number: higher = more cells remaining
- Hit rule: 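Counted as a hit if cell number falls by a z-score of at least 3 within its plate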

For Rip11 [DRSC20000], how do the results read?
Kc cell number, rep 1: 1.52e6; Kc cell number, rep 2: 1.55e6; S2R+ cell number, rep 1: 1.04e6; S2R+ cell number, rep 2: 1.17e6; Call: inactive

What did the screen give for se [DRSC10713]?
Kc cell number, rep 1: 1.59e6; Kc cell number, rep 2: 1.56e6; S2R+ cell number, rep 1: 1.27e6; S2R+ cell number, rep 2: 1.20e6; Call: inactive

For Nnf1a [DRSC06394], how do the results read?
Kc cell number, rep 1: 1.61e6; Kc cell number, rep 2: 1.42e6; S2R+ cell number, rep 1: 1.04e6; S2R+ cell number, rep 2: 1.24e6; Call: inactive

With CG12231 [DRSC19445], how do the results read?
Kc cell number, rep 1: 1.52e6; Kc cell number, rep 2: 1.55e6; S2R+ cell number, rep 1: 1.10e6; S2R+ cell number, rep 2: 1.23e6; Call: inactive

With CG4009 [DRSC15536], how do the results read?
Kc cell number, rep 1: 1.32e6; Kc cell number, rep 2: 1.45e6; S2R+ cell number, rep 1: 1.07e6; S2R+ cell number, rep 2: 1.15e6; Call: inactive

For CG7970 [DRSC08605], what does the deposit list?
Kc cell number, rep 1: 1.31e6; Kc cell number, rep 2: 1.39e6; S2R+ cell number, rep 1: 1.16e6; S2R+ cell number, rep 2: 1.21e6; Call: inactive

Which result is listed for pll [DRSC17026]?
Kc cell number, rep 1: 4.83e5; S2R+ cell number, rep 1: 8.40e5; Call: inactive

Which result is listed for CG31111 [DRSC14649]?
Kc cell number, rep 1: 1.39e6; Kc cell number, rep 2: 1.41e6; S2R+ cell number, rep 1: 7.63e5; S2R+ cell number, rep 2: 8.53e5; Call: inactive

What did the screen give for Pdk1 [DRSC08682]?
Kc cell number, rep 1: 1.55e6; Kc cell number, rep 2: 1.62e6; S2R+ cell number, rep 1: 9.97e5; S2R+ cell number, rep 2: 1.29e6; Call: inactive

For sphe [DRSC20203], what does the deposit list?
Kc cell number, rep 1: 1.58e6; Kc cell number, rep 2: 1.65e6; S2R+ cell number, rep 1: 1.02e6; S2R+ cell number, rep 2: 1.23e6; Call: inactive

For epsilonTry [DRSC07611], what does the deposit list?
Kc cell number, rep 1: 1.60e6; Kc cell number, rep 2: 1.64e6; S2R+ cell number, rep 1: 1.37e6; S2R+ cell number, rep 2: 1.46e6; Call: inactive

How did the screen score Naa20A [DRSC19579]?
Kc cell number, rep 1: 1.57e6; Kc cell number, rep 2: 1.70e6; S2R+ cell number, rep 1: 1.04e6; S2R+ cell number, rep 2: 1.20e6; Call: inactive
